These are yes or no findings as the source states them, for the method shown. Binding seen in cells or lysates may run through a third protein. Some results given as binding are weak or reduced against the parent protein; the word gives no strength.

Protein sequences, listed by entry. Tags and fused reporters are not part of them.
UniProt Q969R5: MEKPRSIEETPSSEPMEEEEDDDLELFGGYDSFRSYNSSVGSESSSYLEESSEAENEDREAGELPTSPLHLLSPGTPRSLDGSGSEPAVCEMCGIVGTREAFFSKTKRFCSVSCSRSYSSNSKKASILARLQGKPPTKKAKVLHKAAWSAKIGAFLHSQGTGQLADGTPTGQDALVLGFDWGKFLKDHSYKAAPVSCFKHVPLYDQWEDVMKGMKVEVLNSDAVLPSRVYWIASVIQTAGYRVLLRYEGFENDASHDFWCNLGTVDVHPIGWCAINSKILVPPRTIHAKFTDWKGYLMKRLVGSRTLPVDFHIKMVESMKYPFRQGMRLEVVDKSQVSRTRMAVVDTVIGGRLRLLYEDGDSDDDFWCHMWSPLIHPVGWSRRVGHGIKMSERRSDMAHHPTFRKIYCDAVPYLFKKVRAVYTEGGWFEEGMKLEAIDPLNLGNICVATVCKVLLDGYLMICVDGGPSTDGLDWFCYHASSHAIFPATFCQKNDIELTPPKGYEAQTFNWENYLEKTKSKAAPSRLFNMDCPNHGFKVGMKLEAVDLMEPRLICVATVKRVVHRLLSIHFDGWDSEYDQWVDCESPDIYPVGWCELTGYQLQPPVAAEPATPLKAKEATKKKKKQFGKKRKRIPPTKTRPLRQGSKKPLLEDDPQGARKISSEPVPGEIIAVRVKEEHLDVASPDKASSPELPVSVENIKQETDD
UniProt Q09028: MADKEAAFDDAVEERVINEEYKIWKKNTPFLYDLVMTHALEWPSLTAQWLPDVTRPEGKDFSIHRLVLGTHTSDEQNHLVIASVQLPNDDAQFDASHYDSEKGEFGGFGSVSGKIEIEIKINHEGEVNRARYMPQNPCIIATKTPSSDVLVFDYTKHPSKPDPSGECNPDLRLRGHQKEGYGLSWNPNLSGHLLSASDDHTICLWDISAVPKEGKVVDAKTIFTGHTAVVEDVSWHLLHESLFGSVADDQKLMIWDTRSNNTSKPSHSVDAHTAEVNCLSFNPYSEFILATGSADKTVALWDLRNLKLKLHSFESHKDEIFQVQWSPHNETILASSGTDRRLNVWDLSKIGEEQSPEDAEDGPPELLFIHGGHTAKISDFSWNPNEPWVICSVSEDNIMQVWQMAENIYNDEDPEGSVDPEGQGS

Common to all, as to assay: cross-linking + pull-down; 10 µM biotinylated diazirine peptide probe incubated with HEK293T nuclear lysate (0.5 mg/mL) at 4 °C for 1 h, 365 nm UV 30 min on ice, proteins precipitated and dissolved in 1% SDS PBS, streptavidin agarose, western blot; only the target purified
A general note: A western blot detects proteins with antibodies after separation by electrophoresis.

One assay addresses T1, H4K5me (probe 6).
T1 sequence (peptide, photo-arginine R(dz) at 3; monomethyl-lysine at 5; K(biotin) at 15): SGRGKGGKGLGKGGK

A further assay addresses T2, H4K5me2 (probe 7).
T2 sequence (peptide, photo-arginine R(dz) at 3; dimethyl-lysine at 5; K(biotin) at 15): SGRGKGGKGLGKGGK

Another assay concerns the target T3, H3K4‐R2dz (probe 1).
T3 sequence (peptide, photo-arginine R(dz) at 2; K(biotin) at 14): ARTKQTARKSTGGKA

Regarding “Lethal(3)malignant brain tumor‐like protein 2 (L3MBTL2) (from UniProt Q969R5 1-705)”, the binding entry with H4K5me (probe 6) and in the assay with H4K5me2 (probe 7) was “binds” throughout. As for “Retinoblastoma binding protein 4 (RBBP4), endogenous (from UniProt Q09028 1-425)”, in the assay with H3K4‐R2dz (probe 1), the binding result is reported as “binds”.
